Source: paper PMC7732531, “Comparable Intestinal and Hepatic First-Pass Effect of YL-IPA08 on the Bioavailability and Effective Brain Exposure, a Rapid Anti-PTSD and Anti-Depression Compound” (Frontiers in Pharmacology, 2020)

Legend:
[1] = male, Sprague-Dawley (SD), rat, in vivo, po, 1 mg/kg
Caco-2 cells = assay: Transcellular transport experiment with Caco-2 cells
Description: (§1) Caco-2 cell lines were cultured (ATCC, Manassas, VA, United States) as described previously ([Liu et al., 2014]). Briefly, the cells were cultured at 37°C in 5% CO2 at 90% humidity in DMEM high glucose medium containing 20% fetal bovine serum, 1% nonessential amino acids, 100 U/ml penicillin and 1% streptomycin. For the efflux studies, the cells were seeded onto polyethylene terephthalate Millicell® cell culture inserts (0.4 μm pore size, 6.5 mm diameter, Millipore Corporation, Billerica, MA, United States) at a density of 1.7 × 10^5 cells/ml. The culture medium was refreshed on the day after seeding, after which it was refreshed every other day and on the day before the transport experiment. The cells were cultured for 20–22 days after seeding and then evaluated by measuring the transepithelial electrical resistance (TEER) (Millicell ERS®, Millipore Corporation) before experiments. […] Transepithelial permeability studies for YL-IPA08 (10 μM) were conducted from apical to basolateral side (A-B) and basolateral to apical side (B-A) for 120 min 0.2% BSA was included in the receiver solution to avoid nonspecific binding. At 60, 90, and 120 min, half volume of solution from receiver side was withdrawn, and same volume of HBSS was immediately added. Obtained samples were precipitated by adding 4× volumes of acetonitrile containing IS and centrifuged. The supernatants were stored in −20°C until further analysis by LC-MS/MS.
(§2) The in vitro t1/2 in liver microsomal incubation was calculated from the semi-log plot of percentage remaining vs. incubation time and intrinsic clearance (Clint, ml/min/mg protein) was calculated as Eq. 1: CLint=0.693/in vitro t1/2×volume of incubation (μl)/amount of microsomal protein in incubation (mg) (1) ([Suzuki et al., 2003]).Apparent permeability was obtained according to the equation Papp = (dQ/dt)/(A × C0), where dQ/dt is the mass transport rate (determined from the slope of the amount transported vs. time plot), A is the surface area of the monolayer, and C0 is the initial concentration of YL-IPA08 in the donor chamber ([Suzuki et al., 2003]). The efflux ratio was calculated for each study using the following equation: […] = Papp(B–A)/Papp(A–B), where Papp(B–A) and Papp(A–B) represent apparent drug permeability in the B to A and A to B direction, respectively. An efflux ratio greater than 2 indicates net efflux.

[2] = as above; conditions: human, Caco-2
Description: as §1, §2

Concentration, A-B-A-90min (Caco-2 cells; Caco-2, A→B, apical (donor) side, 90 min)	Concentration, A-B-B-90min (Caco-2 cells; Caco-2, A→B, basolateral (receiver) side, 90 min)	Concentration, B-A-A-90min (Caco-2 cells; Caco-2, B→A, apical (receiver) side, 90 min)	Concentration, B-A-B-90min (Caco-2 cells; Caco-2, B→A, basolateral (donor) side, 90 min)	Concentration, DOA (Caco-2 cells; Caco-2, apical donor at time 0)	Concentration, DOB (Caco-2 cells; Caco-2, basolateral donor at time 0)	Papp A→B at 120 min, 10 μM [2]	Papp B→A at 120 min, 10 μM [2]	efflux ratio at 120 min, 10 μM [2]	Structure (SMILES)	AUC [1]
–	–	–	–	–	–	–	–	–	CCN(Cc1ccccn1)C(=O)Cc1c(-c2ccc(Cl)c(Cl)c2)nc2cc(C)ccn12 [YL-IPA08]	339 ± 93 h･ng/ml
7.683 ± 1.484 µM	0.002 ± 0.001 µM	0.01 ± 0.005 µM	9.117 ± 0.846 µM	10.55 ± 0.707 µM	10.337 ± 0.574 µM	0.1 ± 0.06 ×10⁻⁶ cm/s	0.12 ± 0.11 ×10⁻⁶ cm/s	1.21	CC(C)NCC(O)COc1ccc(CC(N)=O)cc1 (stereo not shown) [Atenolol]	–
